Legend:
primary AML samples = assay: HLA class I ligandome analysis (W6/32 immunoaffinity purification, LC-MS/MS) of primary AML samples; design: species or system human; conditions: AML patients (n=15)
[1] = system: cancer tissues in comparison to non-cancerous tissues and organs; assay: Presentation profile / over-presentation by label-free LC-MS (XPRESIDENT), tumor versus normal tissues, other proliferative diseases; design: species or system human; conditions: other proliferative diseases / organs (other than AML) that over- or exclusively present the peptide; Table 5
[2] = HLA class I ligandome, count for the HLA ligand (LiTAP) or, on protein lines, for the source protein (LiTAA)

Row | Substance | Number of positive AMLs (primary AML samples; [2]) | Proliferative disease and location thereof [1] | Number of positive AMLs (primary AML samples; HLA ligand (LiTAP))
1 | 194 (FEVKDLLSL; listed as Homo sapiens) [compound 194] | 1 | kidney, clear cell renal cell carcinoma, brain, meningioma | 
2 | 166 (KETKAVTNF; listed as Homo sapiens) [compound 166] | 1 | stomach, adenocarcinoma, spleen, chronic; myeloid leukemia | 
3 | 266 (KLQEQLAQL; listed as Homo sapiens) [compound 266] |  | liver, hepatocellular carcinoma, cancer, colon, adenocarcinoma | 1
4 | 72 (THLVDQDTTSF; listed as Homo sapiens) [compound 72] | 1 | kidney, clear cell renal cell carcinoma, synovial; sarcoma | 
5 | 274 (KLDQKLPEL; listed as Homo sapiens) [compound 274] |  | kidney, clear cell renal cell carcinoma, kidney, angiomyolipoma | 1
6 | 262 (GLDPSQRPK; listed as Homo sapiens) [compound 262] |  | lung, non-small cell lung carcinoma, uterine cervix, squamous cell carcinoma | 2
7 | 211 (KLHDETLTY; listed as Homo sapiens) [compound 211] | 1 | stomach, adenocarcinoma, ovary, adenocarcinoma | 
8 | 105 (AEIEDIRVL; listed as Homo sapiens) [compound 105] | 1 | stomach, metastatic, duodenum, adenocarcinoma | 
9 | 112 (LLDPSVFHV; listed as Homo sapiens) [compound 112] | 3 | stomach, adenocarcinoma, testis, seminoma | 
10 | 245 (ETVRTLNNLY; listed as Homo sapiens) [compound 245] |  | brain, glioblastoma, omentum, leiomyosarcoma, metastatic | 3
11 | 293 (YHSQDRYEF; listed as Homo sapiens) [compound 293] |  | stomach, metastatic, non-Hodgkin's lymphoma | 3
12 | 74 (EIIKEISIM; listed as Homo sapiens) [compound 74] | 3 | pancreas, adenocarcinoma, lymph node, Hodgkin's disease | 
13 | 46 (KLYPTLVIR; listed as Homo sapiens) [compound 46] | 4 | stomach, adenocarcinoma, endometrium, adenocarcinoma | 
14 | 318 (GLDPNKPPEL; listed as Homo sapiens) [compound 318] |  | breast, carcinoma | 1
15 | 93 (DIKRGIPN; listed as Homo sapiens) [compound 93] | 1 | stomach, adenocarcinoma, lung, small cell carcinoma | 
16 | 158 (KSNSIIVSPR; listed as Homo sapiens) [compound 158] | 3 | brain, glioblastoma, brain, meningioma | 
17 | 250 (TSTTRPVL; listed as Homo sapiens) [compound 250] |  | lung, non-small cell lung carcinoma, stomach, adenocarcinoma | 1
18 | 35 (HGYENPTYK; listed as Homo sapiens) [compound 35] | 4 | lung, non-small cell lung carcinoma, kidney, carcinoma | 
19 | 4 (REQDEAYRL; listed as Homo sapiens) [compound 4] | 1 | colon or rectum, lung, small cell carcinoma | 

Row | Substance | Number of positive AMLs (primary AML samples; [2]) | Proliferative disease and location thereof [1] | Number of positive AMLs (primary AML samples; HLA ligand (LiTAP))
20 | 179 (VFTLKPLEF; listed as Homo sapiens) [compound 179] | 1 | kidney, clear cell renal cell carcinoma, non- Hodgkin's lymphoma | 
21 | 203 (VALVHPDL; listed as Homo sapiens) [compound 203] | 1 | stomach, adenocarcinoma, colon, adenocarcinoma | 
22 | 204 (LPDDKVTAL; listed as Homo sapiens) [compound 204] | 3 | stomach, metastatic, stomach, adenocarcinoma | 
23 | 107 (READFKETL; listed as Homo sapiens) [compound 107] | 2 | stomach, metastatic, duodenum, adenocarcinoma | 
24 | 52 (VHSPAGMAL; listed as Homo sapiens) [compound 52] | 1 | parathyroid gland, adenoma | 
25 | 42 (KEIDVISI; listed as Homo sapiens) [compound 42] | 1 | stomach, metastatic, adenocarcinoma | 
26 | 2 (FTAEFSSRY; listed as Homo sapiens) [compound 2] | 2 | colon or rectum, lung, small cell carcinoma | 
27 | 208 (EHLRKLEAE; listed as Homo sapiens) [compound 208] | 1 | colon or rectum, rectum, adenocarcinoma | 
28 | 221 (EAITAIMKY; listed as Homo sapiens) [compound 221] | 1 | kidney, clear cell renal cell carcinoma, spleen, non-Hodgkin's lymphoma | 
29 | 299 (KYPLNLYLL; listed as Homo sapiens) [compound 299] |  | kidney, clear cell renal cell carcinoma, lipoma | 2
30 | 75 (SVSDIIRLR; listed as Homo sapiens) [compound 75] | 1 | pancreas, adenocarcinoma, lymph node, Hodgkin's disease | 
31 | 94 (DIKRGIPNY; listed as Homo sapiens) [compound 94] | 1 | stomach, adenocarcinoma, lung, small cell carcinoma | 
32 | 296 (VIYNEQMASK; listed as Homo sapiens) [compound 296] |  | liver, hepatocellular carcinoma, cancer, liver, focal nodular hyperplasia | 3
33 | 170 (WIDGVLNNPGPG; listed as Homo sapiens) [compound 170] | 1 | spleen, chronic myeloid leukemia | 
34 | 81 (RESEYKQVY; listed as Homo sapiens) [compound 81] | 1 | colon or rectum, metastatic renal cell carcinoma | 
35 | 132 (KLNEVIVNK; listed as Homo sapiens) [compound 132] | 3 | lung, non-small cell lung carcinoma, testis, seminoma | 
36 | 182 (LSEIAGMTLP; listed as Homo sapiens) [compound 182] | 1 | stomach, metastatic, pancreas, adenocarcinoma | 
37 | 246 (HSIDKVTSR; listed as Homo sapiens) [compound 246] |  | colon or rectum, parathyroid gland, adenoma | 2
38 | 279 (KELRELLSI; listed as Homo sapiens) [compound 279] |  | colon or rectum, fibromatosis | 1

Source: patent US10525115B2 (Immatics Biotechnologies GmbH, priority 2014, dated 2020)
